This note sets out measurements from US4518527 (dated 1985).

* marks the point of attachment. Cbz = O=C(OCc1ccccc1)*; OBn = c1ccc(CO*)cc1

The nature of the data set: general procedure: solution-phase peptide synthesis; isobutyl chloroformate/N-methylmorpholin/HOSu; azide method (isoamylnitrite).

Cbz-K(Cbz)SDEES-OH: under “coupling step”, the step yield came to 72.0%.

Cbz-D(OBn)EES-OH: the step yield (coupling step) worked out at 81.1%.

For H-KSDEES-OH, under “late stage modification step”, the step yield is on record as 83.5%.
